# Some results come without the dose or concentration used.
# Assay: Sensory properties of lipid/alkanediol blends assessed by untrained panellists
# Format: in vivo
# [1] = CCT (neutral oil), difference w and w/o
# [2] = Cacao butter, difference w and w/o
# [3] = Grapeseed Oil, difference w and w/o
# [4] = Octocrylene, difference w and w/o
# [5] = Olive Oil, difference w and w/o
# [6] = Argan Oil, difference w and w/o
# [7] = Argan Oil, difference with (w) and without (w/o) alkanediol
# [8] = Avocado Oil, difference w and w/o
# [9] = Helianthus Annuus (Sunflower) Seed Oil, difference w and w/o
structure (smiles),measurement,setting,value
"CCCCC(O)CO (stereo not drawn) [1,2-C6, 1,2-hexanediol]","Absorption, Δ",[1],1.8
same,"Fatty/greasy Skin Feel, Δ",[1],1.4
same,"Spreading, Δ",[1],1.8
"CCCCCC(O)CO (stereo not drawn) [1,2-C7, 1,2-heptanediol]","Absorption, Δ",[1],0.6
same,"Fatty/greasy Skin Feel, Δ",[1],0.3
same,"Spreading, Δ",[1],1.5
same,"Absorption, Δ",[2],0
same,"Fatty/greasy Skin Feel, Δ",[2],1.2
same,"Spreading, Δ",[2],2
same,"Absorption, Δ",[3],0.2
same,"Fatty/greasy Skin Feel, Δ",[3],2
same,"Spreading, Δ",[3],1.8
same,"Absorption, Δ",[4],0.5
same,"Fatty/greasy Skin Feel, Δ",[4],0.5
same,"Spreading, Δ",[4],2.5
same,"Absorption, Δ",[5],1.6
same,"Fatty/greasy Skin Feel, Δ",[5],1.8
same,"Spreading, Δ",[5],1.8
"CCCCCCC(O)CO (stereo not drawn) [1,2-C8, 1,2-octanediol]","Absorption, Δ",[6],1.2
same,"Fatty/greasy Skin Feel, Δ",[6],1.4
same,"Spreading, Δ",[7],1.8
same,"Absorption, Δ",[8],1.2
same,"Fatty/greasy Skin Feel, Δ",[8],0.8
same,"Spreading, Δ",[8],2
same,"Absorption, Δ",[3],1
same,"Fatty/greasy Skin Feel, Δ",[3],1.4
same,"Spreading, Δ",[3],2
same,"Absorption, Δ",[9],1.3
same,"Fatty/greasy Skin Feel, Δ",[9],1.8
same,"Spreading, Δ",[9],3
same,"Absorption, Δ",[4],0.5
same,"Fatty/greasy Skin Feel, Δ",[4],0.5
same,"Spreading, Δ",[4],2.5
same,"Absorption, Δ",[5],1.4
same,"Fatty/greasy Skin Feel, Δ",[5],1.2
same,"Spreading, Δ",[5],2
"CCCC(O)C(C)O (stereo not drawn) [2,3-C6, 2,3-hexanediol]","Absorption, Δ",[1],1.8
same,"Fatty/greasy Skin Feel, Δ",[1],1.4
same,"Spreading, Δ",[1],1.4
"CCCCC(O)C(C)O (stereo not drawn) [2,3-C7, 2,3-heptanediol]","Absorption, Δ",[1],0.3
same,"Fatty/greasy Skin Feel, Δ",[1],−0.2
same,"Spreading, Δ",[1],1.7
same,"Absorption, Δ",[2],0.4
same,"Fatty/greasy Skin Feel, Δ",[2],0.8
same,"Spreading, Δ",[2],1.2
same,"Absorption, Δ",[3],0.8
same,"Fatty/greasy Skin Feel, Δ",[3],1.6
same,"Spreading, Δ",[3],1.6
same,"Absorption, Δ",[4],0.5
same,"Fatty/greasy Skin Feel, Δ",[4],1.0
same,"Spreading, Δ",[4],2.5
same,"Absorption, Δ",[5],2
same,"Fatty/greasy Skin Feel, Δ",[5],1.6
same,"Spreading, Δ",[5],1.8
"CCCCCC(O)C(C)O (stereo not drawn) [2,3-C8, 2,3-octanediol]","Absorption, Δ",[6],1.6
same,"Fatty/greasy Skin Feel, Δ",[6],1.6
same,"Spreading, Δ",[7],1.4
same,"Absorption, Δ",[8],1.4
same,"Fatty/greasy Skin Feel, Δ",[8],1
same,"Spreading, Δ",[8],1.2
same,"Absorption, Δ",[3],0.2
same,"Fatty/greasy Skin Feel, Δ",[3],1.4
same,"Spreading, Δ",[3],0.8
same,"Absorption, Δ",[9],−0.1
same,"Fatty/greasy Skin Feel, Δ",[9],0.8
same,"Spreading, Δ",[9],2.2
same,"Absorption, Δ",[4],1.5
same,"Fatty/greasy Skin Feel, Δ",[4],1.0
same,"Spreading, Δ",[4],2.5
same,"Absorption, Δ",[5],1.4
same,"Fatty/greasy Skin Feel, Δ",[5],1.4
same,"Spreading, Δ",[5],0.8

# — US20230295066A1, “Process for the Efficient Preparation of (Bio)-Alkanediols” (Symrise AG, priority 2020, published 2023)
